The supplement of paper PMC10849652
The other results are listed elsewhere or left out.

Protein sequences, listed by entry. Tags and fused reporters are not part of them. Lines headed by an entry give the natural chain unless they say otherwise; changes in a name come on top.
UniProt Q9BYJ9: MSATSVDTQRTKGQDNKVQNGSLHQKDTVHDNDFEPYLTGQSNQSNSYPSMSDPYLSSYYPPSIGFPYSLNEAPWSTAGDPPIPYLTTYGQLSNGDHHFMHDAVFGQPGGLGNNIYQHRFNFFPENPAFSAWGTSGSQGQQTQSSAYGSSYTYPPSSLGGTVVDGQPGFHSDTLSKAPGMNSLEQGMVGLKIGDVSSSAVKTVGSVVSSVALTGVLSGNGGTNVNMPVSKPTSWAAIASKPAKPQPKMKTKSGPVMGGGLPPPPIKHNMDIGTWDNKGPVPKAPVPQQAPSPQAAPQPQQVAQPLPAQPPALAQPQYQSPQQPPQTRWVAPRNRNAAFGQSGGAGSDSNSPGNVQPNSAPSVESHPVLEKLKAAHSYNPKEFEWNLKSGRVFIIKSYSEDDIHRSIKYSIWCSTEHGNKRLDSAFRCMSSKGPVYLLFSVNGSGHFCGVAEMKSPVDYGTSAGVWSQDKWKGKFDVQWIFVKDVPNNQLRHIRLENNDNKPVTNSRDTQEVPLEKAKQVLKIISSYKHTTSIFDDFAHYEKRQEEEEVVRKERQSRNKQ
UniProt Q6FIF0: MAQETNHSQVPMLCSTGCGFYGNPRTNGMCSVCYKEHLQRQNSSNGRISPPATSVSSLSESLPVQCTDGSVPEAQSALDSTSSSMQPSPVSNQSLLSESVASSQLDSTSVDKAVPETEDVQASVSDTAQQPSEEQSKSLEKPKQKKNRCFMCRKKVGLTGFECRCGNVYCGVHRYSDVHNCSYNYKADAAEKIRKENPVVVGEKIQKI
UniProt P63104: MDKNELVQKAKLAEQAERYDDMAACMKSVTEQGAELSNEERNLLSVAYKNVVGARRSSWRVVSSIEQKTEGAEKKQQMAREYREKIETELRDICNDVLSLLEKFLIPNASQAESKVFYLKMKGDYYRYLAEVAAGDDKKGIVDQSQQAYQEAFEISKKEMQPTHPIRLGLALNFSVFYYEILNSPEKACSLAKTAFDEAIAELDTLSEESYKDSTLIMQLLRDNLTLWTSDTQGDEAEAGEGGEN
UniProt Q9C0D7: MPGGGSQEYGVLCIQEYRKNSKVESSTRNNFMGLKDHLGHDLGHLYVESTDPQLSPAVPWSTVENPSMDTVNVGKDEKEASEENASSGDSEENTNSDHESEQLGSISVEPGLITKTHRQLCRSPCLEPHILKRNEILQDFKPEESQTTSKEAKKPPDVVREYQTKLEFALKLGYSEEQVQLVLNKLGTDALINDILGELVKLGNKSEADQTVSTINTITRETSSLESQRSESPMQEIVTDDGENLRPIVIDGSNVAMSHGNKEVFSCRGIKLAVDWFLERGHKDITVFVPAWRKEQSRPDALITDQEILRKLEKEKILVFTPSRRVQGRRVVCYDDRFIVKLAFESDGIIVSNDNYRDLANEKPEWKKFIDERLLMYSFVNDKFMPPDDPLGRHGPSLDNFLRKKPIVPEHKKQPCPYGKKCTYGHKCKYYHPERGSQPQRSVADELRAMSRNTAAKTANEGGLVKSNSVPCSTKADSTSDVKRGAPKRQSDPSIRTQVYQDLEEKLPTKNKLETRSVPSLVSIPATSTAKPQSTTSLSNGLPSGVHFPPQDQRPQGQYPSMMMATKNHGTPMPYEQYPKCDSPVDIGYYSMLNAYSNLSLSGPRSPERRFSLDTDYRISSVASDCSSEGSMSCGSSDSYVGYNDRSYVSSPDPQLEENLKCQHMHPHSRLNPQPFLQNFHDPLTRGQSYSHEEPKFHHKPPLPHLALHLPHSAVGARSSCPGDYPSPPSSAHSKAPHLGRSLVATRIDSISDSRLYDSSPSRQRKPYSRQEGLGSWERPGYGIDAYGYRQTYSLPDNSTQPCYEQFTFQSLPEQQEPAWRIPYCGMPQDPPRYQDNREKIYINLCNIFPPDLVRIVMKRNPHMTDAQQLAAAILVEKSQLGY
UniProt Q9BWQ6: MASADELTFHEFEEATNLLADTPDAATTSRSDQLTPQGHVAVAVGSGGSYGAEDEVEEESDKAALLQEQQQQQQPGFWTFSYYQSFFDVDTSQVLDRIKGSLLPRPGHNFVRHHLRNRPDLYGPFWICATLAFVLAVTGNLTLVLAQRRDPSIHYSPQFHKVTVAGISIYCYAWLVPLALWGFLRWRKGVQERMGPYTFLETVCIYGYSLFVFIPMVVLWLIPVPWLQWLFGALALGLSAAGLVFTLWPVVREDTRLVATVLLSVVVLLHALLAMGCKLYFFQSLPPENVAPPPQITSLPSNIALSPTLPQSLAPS
UniProt Q9Y2K1: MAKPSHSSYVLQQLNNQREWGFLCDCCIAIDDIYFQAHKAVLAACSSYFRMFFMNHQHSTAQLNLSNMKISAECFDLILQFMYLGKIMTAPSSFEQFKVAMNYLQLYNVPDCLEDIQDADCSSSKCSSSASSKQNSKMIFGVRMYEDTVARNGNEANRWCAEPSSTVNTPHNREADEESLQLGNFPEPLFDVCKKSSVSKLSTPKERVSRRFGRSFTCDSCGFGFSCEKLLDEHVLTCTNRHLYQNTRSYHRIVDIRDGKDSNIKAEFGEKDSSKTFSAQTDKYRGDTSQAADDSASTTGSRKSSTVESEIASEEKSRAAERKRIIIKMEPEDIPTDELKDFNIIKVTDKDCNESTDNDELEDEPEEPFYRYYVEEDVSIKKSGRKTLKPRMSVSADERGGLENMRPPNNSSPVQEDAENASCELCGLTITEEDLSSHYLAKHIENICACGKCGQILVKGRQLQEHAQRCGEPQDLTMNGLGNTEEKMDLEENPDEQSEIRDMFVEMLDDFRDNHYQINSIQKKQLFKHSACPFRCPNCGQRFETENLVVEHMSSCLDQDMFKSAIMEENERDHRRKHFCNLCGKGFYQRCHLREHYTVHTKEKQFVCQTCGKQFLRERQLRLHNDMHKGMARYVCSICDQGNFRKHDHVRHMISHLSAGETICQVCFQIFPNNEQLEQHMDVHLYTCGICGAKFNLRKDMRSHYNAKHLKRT
UniProt Q8N3Z6: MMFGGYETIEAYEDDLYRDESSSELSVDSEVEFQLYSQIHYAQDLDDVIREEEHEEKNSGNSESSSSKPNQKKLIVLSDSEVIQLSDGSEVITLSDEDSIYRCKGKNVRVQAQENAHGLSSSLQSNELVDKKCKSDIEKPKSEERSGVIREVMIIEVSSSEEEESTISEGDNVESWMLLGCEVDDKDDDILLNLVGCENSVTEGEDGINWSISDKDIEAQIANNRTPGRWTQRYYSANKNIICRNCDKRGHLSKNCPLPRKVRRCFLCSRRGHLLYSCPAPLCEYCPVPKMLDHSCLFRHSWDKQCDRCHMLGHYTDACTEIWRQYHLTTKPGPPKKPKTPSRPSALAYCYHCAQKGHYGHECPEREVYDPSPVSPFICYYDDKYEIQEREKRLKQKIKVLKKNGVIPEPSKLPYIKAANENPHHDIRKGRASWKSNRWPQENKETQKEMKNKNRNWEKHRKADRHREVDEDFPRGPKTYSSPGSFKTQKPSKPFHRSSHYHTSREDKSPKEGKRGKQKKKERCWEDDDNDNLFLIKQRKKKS
UniProt Q96DA0: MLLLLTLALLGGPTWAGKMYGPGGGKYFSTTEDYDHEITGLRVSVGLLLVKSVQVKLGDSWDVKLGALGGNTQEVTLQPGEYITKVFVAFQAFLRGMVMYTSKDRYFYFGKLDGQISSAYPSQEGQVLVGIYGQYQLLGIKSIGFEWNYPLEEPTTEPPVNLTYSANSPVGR
UniProt O15060: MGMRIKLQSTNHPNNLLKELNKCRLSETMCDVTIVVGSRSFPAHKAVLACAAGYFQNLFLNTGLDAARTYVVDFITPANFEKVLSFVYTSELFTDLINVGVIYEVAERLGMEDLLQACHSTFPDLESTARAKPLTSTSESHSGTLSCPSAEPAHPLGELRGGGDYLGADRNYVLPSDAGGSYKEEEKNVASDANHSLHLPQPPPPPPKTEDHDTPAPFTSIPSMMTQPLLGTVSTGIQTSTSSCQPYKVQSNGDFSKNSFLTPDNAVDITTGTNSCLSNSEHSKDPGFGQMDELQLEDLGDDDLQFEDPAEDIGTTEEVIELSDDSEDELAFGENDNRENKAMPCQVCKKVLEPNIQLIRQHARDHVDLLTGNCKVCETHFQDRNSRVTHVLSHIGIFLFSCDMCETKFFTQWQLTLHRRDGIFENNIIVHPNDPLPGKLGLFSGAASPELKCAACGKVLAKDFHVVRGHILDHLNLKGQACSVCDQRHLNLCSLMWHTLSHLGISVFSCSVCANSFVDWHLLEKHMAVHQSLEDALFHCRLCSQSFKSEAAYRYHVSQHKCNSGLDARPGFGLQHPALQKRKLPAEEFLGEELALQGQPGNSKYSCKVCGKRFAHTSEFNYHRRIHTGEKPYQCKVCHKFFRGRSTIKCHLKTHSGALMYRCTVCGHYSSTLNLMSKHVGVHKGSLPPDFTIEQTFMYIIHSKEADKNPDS
UniProt Q8TBF4: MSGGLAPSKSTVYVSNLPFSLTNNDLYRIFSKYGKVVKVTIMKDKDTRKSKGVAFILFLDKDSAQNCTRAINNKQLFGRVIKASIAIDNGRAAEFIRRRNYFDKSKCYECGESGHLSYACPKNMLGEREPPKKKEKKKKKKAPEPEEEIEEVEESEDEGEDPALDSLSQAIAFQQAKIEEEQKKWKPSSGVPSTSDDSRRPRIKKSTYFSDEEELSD
UniProt Q9UIJ5: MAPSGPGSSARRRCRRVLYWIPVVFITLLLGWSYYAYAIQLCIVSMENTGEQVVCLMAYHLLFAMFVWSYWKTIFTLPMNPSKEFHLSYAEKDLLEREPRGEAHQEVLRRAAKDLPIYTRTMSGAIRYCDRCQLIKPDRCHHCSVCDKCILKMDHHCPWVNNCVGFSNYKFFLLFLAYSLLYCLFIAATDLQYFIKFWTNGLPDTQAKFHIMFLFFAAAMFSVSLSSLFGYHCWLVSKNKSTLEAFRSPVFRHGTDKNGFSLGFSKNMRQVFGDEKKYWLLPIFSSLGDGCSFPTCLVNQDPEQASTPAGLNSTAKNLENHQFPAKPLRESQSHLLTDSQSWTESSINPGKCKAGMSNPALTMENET
UniProt Q96K80: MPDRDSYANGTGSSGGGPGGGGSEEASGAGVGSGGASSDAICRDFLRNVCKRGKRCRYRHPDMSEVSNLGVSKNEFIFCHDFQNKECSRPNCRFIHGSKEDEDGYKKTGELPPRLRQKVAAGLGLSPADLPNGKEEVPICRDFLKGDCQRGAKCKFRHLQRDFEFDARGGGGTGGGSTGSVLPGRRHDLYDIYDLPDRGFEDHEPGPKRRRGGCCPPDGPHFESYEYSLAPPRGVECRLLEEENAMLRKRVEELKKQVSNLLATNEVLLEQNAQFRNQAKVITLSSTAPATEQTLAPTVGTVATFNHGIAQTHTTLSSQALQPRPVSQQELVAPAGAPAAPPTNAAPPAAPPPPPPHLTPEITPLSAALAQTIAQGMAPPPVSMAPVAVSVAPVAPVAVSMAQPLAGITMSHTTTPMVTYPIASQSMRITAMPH
UniProt Q9H869: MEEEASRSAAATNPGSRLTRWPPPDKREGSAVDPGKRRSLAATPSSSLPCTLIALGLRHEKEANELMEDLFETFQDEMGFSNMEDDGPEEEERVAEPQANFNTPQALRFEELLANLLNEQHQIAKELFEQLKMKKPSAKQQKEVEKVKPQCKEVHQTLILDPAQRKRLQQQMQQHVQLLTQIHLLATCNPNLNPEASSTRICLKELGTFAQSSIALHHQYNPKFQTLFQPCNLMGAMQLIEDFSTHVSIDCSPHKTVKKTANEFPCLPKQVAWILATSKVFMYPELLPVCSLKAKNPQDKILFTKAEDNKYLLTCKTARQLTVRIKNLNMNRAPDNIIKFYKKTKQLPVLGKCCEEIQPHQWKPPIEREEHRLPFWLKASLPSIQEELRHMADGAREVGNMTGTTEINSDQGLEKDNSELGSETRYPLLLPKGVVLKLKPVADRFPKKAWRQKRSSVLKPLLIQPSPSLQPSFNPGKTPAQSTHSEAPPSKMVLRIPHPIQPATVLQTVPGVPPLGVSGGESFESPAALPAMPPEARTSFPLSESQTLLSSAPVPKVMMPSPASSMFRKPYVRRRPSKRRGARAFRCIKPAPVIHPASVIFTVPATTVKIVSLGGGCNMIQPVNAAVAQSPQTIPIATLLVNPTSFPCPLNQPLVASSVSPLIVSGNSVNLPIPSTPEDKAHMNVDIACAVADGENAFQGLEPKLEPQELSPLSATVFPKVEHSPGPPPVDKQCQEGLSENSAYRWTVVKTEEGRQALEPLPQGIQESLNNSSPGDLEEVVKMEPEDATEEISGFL
UniProt Q9Y397: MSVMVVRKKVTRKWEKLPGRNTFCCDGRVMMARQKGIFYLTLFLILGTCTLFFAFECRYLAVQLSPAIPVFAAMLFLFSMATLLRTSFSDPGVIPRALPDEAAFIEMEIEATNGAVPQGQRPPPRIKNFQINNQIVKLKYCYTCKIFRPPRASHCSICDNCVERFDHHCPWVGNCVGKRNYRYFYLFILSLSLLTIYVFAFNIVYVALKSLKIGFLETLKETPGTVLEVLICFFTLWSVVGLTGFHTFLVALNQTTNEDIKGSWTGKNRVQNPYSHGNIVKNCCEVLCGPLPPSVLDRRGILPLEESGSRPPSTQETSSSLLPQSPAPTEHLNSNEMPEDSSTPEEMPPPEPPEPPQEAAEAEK

Columns and labels:
Test in all cases: log2 fold change, soluble protein after heating vs DMSO (PISA); higher = thermal stabilisation; K562 lysate, 10 uM; active = over 0.2 and 3.5 SD of the protein, either way, in both replicates (recomputed)
[1] = compound: C1=CC=C(C=C1)[C@H](COC2=CC3=C(C=C2)NC(=O)N3)NC(=O)C4=CC=CN(C4=O)CC5=CC(=C(C=C5)F)F
In short: (§1)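 A 30 min treatment with 10 μM compound was applied to crude K562 extract at 1 mg/mL protein in PBS pH 7.4 with 1 mM MgCl2. Heating for 3 min spanned 48°C-58°C, after which aliquots were pooled, adjusted to 0.5% NP-40 at 4°C and spun at 21,000xg for 90 min. TMTpro 16plex LC-MS/MS of the supernatant, with channel sums equalised, gave values recorded as log-two fold change in thermal stability against solvent controls, from duplicates.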

[2] = compound: CC1=C(SC2=C1C(=N[C@H](C3=NN=C(N32)C)CC(=O)N)C4=CC=C(C=C4)Cl)C
In short: as §1

[3] = compound: CC1=C2C(=CC=C1)N=C(N(C2=O)C3=CC=CC=C3C)CN4C=NC5=C(N=CN=C54)N
In short: as §1

[4] = compound: Cc1sc2c(c1C)C(c1ccc(Cl)cc1)=N[C@@H](CC(=O)OC(C)(C)C)c1nnc(C)n1-2
In short: as §1

[5] = compound: c1ccc([C@@H]2C[C@H]2NC2CCNCC2)cc1
In short: as §1

Target | log2 fold change [1] | log2 fold change [2] | log2 fold change [3] | log2 fold change [4] | log2 fold change [5]
YTHDF1 (UniProt Q9BYJ9) | inactive: -0.031 | inactive: -0.053 | inactive: 0.106 | inactive: 0.003 | inactive: -0.097
XPO4 (UniProt Q9C0E2) | inactive: 0.004 | inactive: -0.011 | inactive: 0.005 | inactive: -0.043 | inactive: -0.02
XPNPEP1 isoform 3 (UniProt Q9NQW7) | inactive: -0.007 | inactive: -0.025 | inactive: 0.002 | inactive: 0.044 | inactive: -0.006
ZFAND6 (UniProt Q6FIF0) | inactive: 0.075 | inactive: 0.013 | inactive: -0.017 | inactive: -0.068 | inactive: -0.158
YEATS4 (UniProt O95619) | inactive: -0.014 | inactive: 0.05 | inactive: -0.029 | inactive: 0.046 | inactive: 0.25
ZBED1 (UniProt O96006) | inactive: 0.081 | inactive: 0.008 | inactive: -0.005 | inactive: -0.035 | inactive: 0.046
ZCCHC17 (UniProt Q9NP64) | inactive: 0.011 | inactive: -0.046 | inactive: -0.113 | inactive: -0.024 | inactive: -0.004
YAF2 isoform 5 (UniProt Q8IY57) | inactive: 0.108 | inactive: -0.086 | inactive: -0.238 | inactive: 0.054 | inactive: 0.033
ZFAND2B (UniProt Q8WV99) | inactive: -0.017 | inactive: 0.177 | inactive: -0.023 | inactive: -0.044 | inactive: -0.219
YWHAZ (UniProt P63104) | inactive: 0.008 | inactive: -0.015 | inactive: -0.018 | inactive: -0.012 | inactive: -0.015
ZDHHC13 (UniProt Q8IUH4) | inactive: 0.044 | inactive: 0.223 | inactive: -0.003 | inactive: -0.029 | inactive: 0.101
ZC3HAV1 (UniProt Q7Z2W4) | inactive: 0.024 | inactive: -0.021 | inactive: 0.027 | inactive: -0.01 | inactive: -0.001
ZBED5 (UniProt Q49AG3) | – | – | – | inactive: 0.168 | –
ZBTB40 (UniProt Q9NUA8) | – | – | inactive: -0.06 | inactive: -0.004 | active: -0.432
ZC3H12C isoform 2 (UniProt Q9C0D7) | inactive: -0.126 | inactive: 0 | – | inactive: 0.417 | inactive: 0.077
ZFX isoform 3 (UniProt P17010) | – | – | – | inactive: 0.03 | –
ZDHHC4 (UniProt Q9NPG8) | inactive: 0.026 | inactive: -0.01 | – | inactive: 0.141 | inactive: -0.116
ZBED6 (UniProt P86452) | – | – | – | inactive: -0.114 | –
ZDHHC17 (UniProt Q8IUH5) | – | – | inactive: 0.057 | inactive: -0.181 | inactive: -0.578
YIPF2 (UniProt Q9BWQ6) | – | – | – | – | inactive: 0.01
ZBTB1 (UniProt Q9Y2K1) | inactive: -0.125 | inactive: 0.159 | – | – | inactive: -0.04
ZBTB43 (UniProt O43298) | – | – | inactive: -0.022 | inactive: 0.073 | –
ZBTB48 (UniProt P10074) | – | – | inactive: 0.059 | inactive: -0.038 | –
XRCC2 (UniProt O43543) | inactive: -0.086 | inactive: -0.017 | – | inactive: -0.075 | inactive: -0.045
ZCCHC7 (UniProt Q8N3Z6) | – | – | – | inactive: -0.023 | –
ZBED4 (UniProt O75132) | – | – | inactive: -0.117 | – | –

Two records drawn at random from those above:
Target | log2 fold change [1] | log2 fold change [2] | log2 fold change [3] | log2 fold change [4] | log2 fold change [5]
ZFAND2B (UniProt Q8WV99) | inactive: -0.017 | inactive: 0.177 | inactive: -0.023 | inactive: -0.044 | inactive: -0.219
YWHAZ (UniProt P63104) | inactive: 0.008 | inactive: -0.015 | inactive: -0.018 | inactive: -0.012 | inactive: -0.015

(next part)

Target | log2 fold change [1] | log2 fold change [2] | log2 fold change [3] | log2 fold change [4] | log2 fold change [5]
ZFAND1 (UniProt Q8TCF1) | inactive: 0.02 | inactive: -0.109 | – | inactive: 0.057 | inactive: 0.279
ZFP92 (UniProt A6NM28) | – | – | inactive: 0.105 | – | –
ZCCHC4 (UniProt Q9H5U6) | – | – | inactive: 0.153 | inactive: 0.007 | inactive: 0.029
ZBTB11 (UniProt O95625) | – | – | inactive: -0.059 | – | inactive: -0.123
ZFP64 isoform 5 (UniProt Q9NTW7) | inactive: -0.109 | inactive: 0.127 | – | – | inactive: -0.05
ZG16B (UniProt Q96DA0) | inactive: -0.424 | inactive: -0.206 | – | – | inactive: -0.19
ZBTB39 (UniProt O15060) | – | – | – | inactive: 0.118 | –
ZDHHC14 (UniProt Q8IZN3) | – | – | inactive: 0.086 | inactive: 0 | inactive: -0.104
YIPF1 (UniProt Q9Y548) | inactive: 0.024 | inactive: -0.019 | – | inactive: 0.06 | –
ZBTB14 (UniProt O43829) | inactive: 0.084 | inactive: -0.106 | – | inactive: -0.027 | inactive: 0.015
ZCRB1 (UniProt Q8TBF4) | – | – | – | inactive: -0.019 | inactive: 0.021
ZBTB24 (UniProt O43167) | inactive: 0.061 | inactive: 0.108 | – | inactive: 0.01 | inactive: -0.072
ZDHHC8 isoform 3 (UniProt Q9ULC8) | – | – | – | – | inactive: -0.131
ZC3H12A (UniProt Q5D1E8) | – | – | – | inactive: 0.016 | –
ZDHHC2 (UniProt Q9UIJ5) | – | – | – | – | inactive: -0.084
ZC3H3 (UniProt Q8IXZ2) | – | – | – | – | inactive: -0.2
ZC3H10 (UniProt Q96K80) | inactive: 0.043 | inactive: -0.081 | – | inactive: -0.017 | –
YY1AP1 isoform 9 (UniProt Q9H869) | – | – | – | inactive: 0.109 | inactive: 0.193
ZBTB17 isoform 2 (UniProt Q13105) | inactive: -0.075 | inactive: 0.084 | – | inactive: -0.036 | –
ZBTB5 (UniProt O15062) | – | – | inactive: -0.038 | inactive: -0.019 | –
YBEY (UniProt P58557) | – | – | inactive: 0.046 | inactive: -0.016 | –
ZDHHC9 (UniProt Q9Y397) | – | – | – | – | inactive: 0.024
YBX1 (UniProt C9J5V9) | – | – | – | – | inactive: 0.129
ZBTB34 (UniProt Q8NCN2) | inactive: 0.173 | inactive: -0.133 | – | inactive: 0.121 | –
ZFYVE1 (UniProt Q9HBF4) | inactive: -0.224 | inactive: -0.011 | – | inactive: 0.079 | inactive: 0.232
